These are yes or no findings as the source states them, for the method shown. In cells and extracts the contact can be indirect. These calls come from enrichment with a bait or labelling near it, and not all partners need be listed. Where a sequence is shown, tags or fusion partners need not be part of it.
B1: GTF3C4 (protein, UniProt Q9UKN8 1-822)
chain: MNTADQARVGPADDGPAPSGEEEGEGGGEAGGKEPAADAAPGPSAAFRLMVTRREPAVKLQYAVSGLEPLAWSEDHRVSVSTARSIAVLELICDVHNPGQDLVIHRTSVPAPLNSCLLKVGSKTEVAECKEKFAASKDPTVSQTFMLDRVFNPEGKALPPMRGFKYTSWSPMGCDANGRCLLAALTMDNRLTIQANLNRLQWVQLVDLTEIYGERLYETSYRLSKNEAPEGNLGDFAEFQRRHSMQTPVRMEWSGICTTQQVKHNNECRDVGSVLLAVLFENGNIAVWQFQLPFVGKESISSCNTIESGITSPSVLFWWEYEHNNRKMSGLIVGSAFGPIKILPVNLKAVKGYFTLRQPVILWKEMDQLPVHSIKCVPLYHPYQKCSCSLVVAARGSYVFWCLLLISKAGLNVHNSHVTGLHSLPIVSMTADKQNGTVYTCSSDGKVRQLIPIFTDVALKFEHQLIKLSDVFGSVRTHGIAVSPCGAYLAIITTEGMINGLHPVNKNYQVQFVTLKTFEEAAAQLLESSVQNLFKQVDLIDLVRWKILKDKHIPQFLQEALEKKIESSGVTYFWRFKLFLLRILYQSMQKTPSEALWKPTHEDSKILLVDSPGMGNADDEQQEEGTSSKQVVKQGLQERSKEGDVEEPTDDSLPTTGDAGGREPMEEKLLEIQGKIEAVEMHLTREHMKRVLGEVYLHTWITENTSIPTRGLCNFLMSDEEYDDRTARVLIGHISKKMNKQTFPEHCSLCKEILPFTDRKQAVCSNGHIWLRCFLTYQSCQSLIYRRCLLHDSIARHPAPEDPDWIKRLLQSPCPFCDSPVF
B2: TONSL (protein, UniProt Q96HA7 1-1378)
chain: MSLERELRQLSKAKAKAQRAGQRREEAALCHQLGELLAGHGRYAEALEQHWQELQLRERADDPLGCAVAHRKIGERLAEMEDYPAALQHQHQYLELAHSLRNHTELQRAWATIGRTHLDIYDHCQSRDALLQAQAAFEKSLAIVDEELEGTLAQGELNEMRTRLYLNLGLTFESLQQTALCNDYFRKSIFLAEQNHLYEDLFRARYNLGTIHWRAGQHSQAMRCLEGARECAHTMRKRFMESECCVVIAQVLQDLGDFLAAKRALKKAYRLGSQKPVQRAAICQNLQHVLAVVRLQQQLEEAEGRDPQGAMVICEQLGDLFSKAGDFPRAAEAYQKQLRFAELLDRPGAERAIIHVSLATTLGDMKDHHGAVRHYEEELRLRSGNVLEEAKTWLNIALSREEAGDAYELLAPCFQKALSCAQQAQRPQLQRQVLQHLHTVQLRLQPQEAPETETRLRELSVAEDEDEEEEAEEAAATAESEALEAGEVELSEGEDDTDGLTPQLEEDEELQGHLGRRKGSKWNRRNDMGETLLHRACIEGQLRRVQDLVRQGHPLNPRDYCGWTPLHEACNYGHLEIVRFLLDHGAAVDDPGGQGCEGITPLHDALNCGHFEVAELLLERGASVTLRTRKGLSPLETLQQWVKLYRRDLDLETRQKARAMEMLLQAAASGQDPHSSQAFHTPSSLLFDPETSPPLSPCPEPPSNSTRLPEASQAHVRVSPGQAAPAMARPRRSRHGPASSSSSSEGEDSAGPARPSQKRPRCSATAQRVAAWTPGPASNREAATASTSRAAYQAAIRGVGSAQSRLGPGPPRGHSKALAPQAALIPEEECLAGDWLELDMPLTRSRRPRPRGTGDNRRPSSTSGSDSEESRPRARAKQVRLTCMQSCSAPVNAGPSSLASEPPGSPSTPRVSEPSGDSSAAGQPLGPAPPPPIRVRVQVQDHLFLIPVPHSSDTHSVAWLAEQAAQRYYQTCGLLPRLTLRKEGALLAPQDLIPDVLQSNDEVLAEVTSWDLPPLTDRYRRACQSLGQGEHQQVLQAVELQGLGLSFSACSLALDQAQLTPLLRALKLHTALRELRLAGNRLGDKCVAELVAALGTMPSLALLDLSSNHLGPEGLRQLAMGLPGQATLQSLEELDLSMNPLGDGCGQSLASLLHACPLLSTLRLQACGFGPSFFLSHQTALGSAFQDAEHLKTLSLSYNALGAPALARTLQSLPAGTLLHLELSSVAAGKGDSDLMEPVFRYLAKEGCALAHLTLSANHLGDKAVRDLCRCLSLCPSLISLDLSANPEISCASLEELLSTLQKRPQGLSFLGLSGCAVQGPLGLGLWDKIAAQLRELQLCSRRLCAEDRDALRQLQPSRPGPGECTLDHGSKLFFRRL

Sequences of proteins named here, by UniProt entry; tags and fusion partners are left off.
UniProt O75165: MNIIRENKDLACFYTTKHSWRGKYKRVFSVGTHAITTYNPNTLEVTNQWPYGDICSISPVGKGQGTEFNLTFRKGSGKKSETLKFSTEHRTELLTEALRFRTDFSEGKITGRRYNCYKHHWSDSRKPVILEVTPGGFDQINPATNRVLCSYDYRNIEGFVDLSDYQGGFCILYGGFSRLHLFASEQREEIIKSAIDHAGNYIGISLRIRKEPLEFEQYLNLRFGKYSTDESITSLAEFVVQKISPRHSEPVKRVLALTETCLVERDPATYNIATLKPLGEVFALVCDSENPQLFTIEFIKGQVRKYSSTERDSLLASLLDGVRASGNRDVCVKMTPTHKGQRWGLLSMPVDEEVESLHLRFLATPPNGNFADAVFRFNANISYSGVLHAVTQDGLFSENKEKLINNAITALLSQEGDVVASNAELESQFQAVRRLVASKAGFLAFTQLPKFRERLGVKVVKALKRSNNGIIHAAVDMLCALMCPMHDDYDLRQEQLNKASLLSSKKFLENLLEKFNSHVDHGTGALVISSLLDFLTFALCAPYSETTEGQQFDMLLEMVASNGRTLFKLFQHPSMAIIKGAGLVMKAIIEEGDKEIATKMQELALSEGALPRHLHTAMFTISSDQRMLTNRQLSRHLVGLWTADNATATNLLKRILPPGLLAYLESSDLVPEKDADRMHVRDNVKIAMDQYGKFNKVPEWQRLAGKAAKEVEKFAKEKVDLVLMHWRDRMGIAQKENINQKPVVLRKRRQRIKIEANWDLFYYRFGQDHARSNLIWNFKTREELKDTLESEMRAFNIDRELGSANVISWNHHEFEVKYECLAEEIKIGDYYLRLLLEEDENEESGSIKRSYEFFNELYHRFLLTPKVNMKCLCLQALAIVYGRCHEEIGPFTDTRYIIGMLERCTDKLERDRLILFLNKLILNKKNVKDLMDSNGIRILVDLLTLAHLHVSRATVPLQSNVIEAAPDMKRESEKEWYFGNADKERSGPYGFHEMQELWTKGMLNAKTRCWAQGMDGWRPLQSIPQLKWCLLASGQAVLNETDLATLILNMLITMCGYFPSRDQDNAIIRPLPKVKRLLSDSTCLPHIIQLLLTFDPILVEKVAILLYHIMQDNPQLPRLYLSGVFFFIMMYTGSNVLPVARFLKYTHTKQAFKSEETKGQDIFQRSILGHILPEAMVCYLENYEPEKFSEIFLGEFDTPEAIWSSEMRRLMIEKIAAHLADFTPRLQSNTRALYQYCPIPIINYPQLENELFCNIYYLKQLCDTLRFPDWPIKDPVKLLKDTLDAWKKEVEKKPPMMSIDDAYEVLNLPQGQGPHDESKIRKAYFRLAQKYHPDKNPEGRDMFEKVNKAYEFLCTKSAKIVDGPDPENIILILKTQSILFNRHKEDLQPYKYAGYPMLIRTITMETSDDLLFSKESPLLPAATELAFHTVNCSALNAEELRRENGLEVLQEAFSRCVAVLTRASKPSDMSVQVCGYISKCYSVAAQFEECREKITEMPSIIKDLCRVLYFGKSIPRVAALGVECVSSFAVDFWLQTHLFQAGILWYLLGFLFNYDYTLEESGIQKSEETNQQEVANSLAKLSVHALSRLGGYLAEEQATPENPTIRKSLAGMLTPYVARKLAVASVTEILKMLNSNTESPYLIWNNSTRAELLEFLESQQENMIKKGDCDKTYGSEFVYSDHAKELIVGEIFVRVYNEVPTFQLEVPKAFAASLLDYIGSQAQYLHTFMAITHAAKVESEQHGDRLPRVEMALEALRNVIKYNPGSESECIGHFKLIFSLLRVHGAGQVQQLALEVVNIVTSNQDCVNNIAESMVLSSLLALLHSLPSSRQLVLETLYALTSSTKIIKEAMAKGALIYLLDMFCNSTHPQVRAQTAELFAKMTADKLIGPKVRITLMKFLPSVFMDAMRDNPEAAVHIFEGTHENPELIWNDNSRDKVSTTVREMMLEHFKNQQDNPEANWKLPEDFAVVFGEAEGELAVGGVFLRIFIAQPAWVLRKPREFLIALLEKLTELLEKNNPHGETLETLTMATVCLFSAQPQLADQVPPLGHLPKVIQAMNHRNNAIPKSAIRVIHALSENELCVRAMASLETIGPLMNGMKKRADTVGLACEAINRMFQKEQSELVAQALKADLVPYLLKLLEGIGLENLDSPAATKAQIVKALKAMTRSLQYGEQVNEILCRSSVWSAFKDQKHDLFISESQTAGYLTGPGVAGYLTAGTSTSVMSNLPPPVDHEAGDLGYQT
UniProt Q9BXW9: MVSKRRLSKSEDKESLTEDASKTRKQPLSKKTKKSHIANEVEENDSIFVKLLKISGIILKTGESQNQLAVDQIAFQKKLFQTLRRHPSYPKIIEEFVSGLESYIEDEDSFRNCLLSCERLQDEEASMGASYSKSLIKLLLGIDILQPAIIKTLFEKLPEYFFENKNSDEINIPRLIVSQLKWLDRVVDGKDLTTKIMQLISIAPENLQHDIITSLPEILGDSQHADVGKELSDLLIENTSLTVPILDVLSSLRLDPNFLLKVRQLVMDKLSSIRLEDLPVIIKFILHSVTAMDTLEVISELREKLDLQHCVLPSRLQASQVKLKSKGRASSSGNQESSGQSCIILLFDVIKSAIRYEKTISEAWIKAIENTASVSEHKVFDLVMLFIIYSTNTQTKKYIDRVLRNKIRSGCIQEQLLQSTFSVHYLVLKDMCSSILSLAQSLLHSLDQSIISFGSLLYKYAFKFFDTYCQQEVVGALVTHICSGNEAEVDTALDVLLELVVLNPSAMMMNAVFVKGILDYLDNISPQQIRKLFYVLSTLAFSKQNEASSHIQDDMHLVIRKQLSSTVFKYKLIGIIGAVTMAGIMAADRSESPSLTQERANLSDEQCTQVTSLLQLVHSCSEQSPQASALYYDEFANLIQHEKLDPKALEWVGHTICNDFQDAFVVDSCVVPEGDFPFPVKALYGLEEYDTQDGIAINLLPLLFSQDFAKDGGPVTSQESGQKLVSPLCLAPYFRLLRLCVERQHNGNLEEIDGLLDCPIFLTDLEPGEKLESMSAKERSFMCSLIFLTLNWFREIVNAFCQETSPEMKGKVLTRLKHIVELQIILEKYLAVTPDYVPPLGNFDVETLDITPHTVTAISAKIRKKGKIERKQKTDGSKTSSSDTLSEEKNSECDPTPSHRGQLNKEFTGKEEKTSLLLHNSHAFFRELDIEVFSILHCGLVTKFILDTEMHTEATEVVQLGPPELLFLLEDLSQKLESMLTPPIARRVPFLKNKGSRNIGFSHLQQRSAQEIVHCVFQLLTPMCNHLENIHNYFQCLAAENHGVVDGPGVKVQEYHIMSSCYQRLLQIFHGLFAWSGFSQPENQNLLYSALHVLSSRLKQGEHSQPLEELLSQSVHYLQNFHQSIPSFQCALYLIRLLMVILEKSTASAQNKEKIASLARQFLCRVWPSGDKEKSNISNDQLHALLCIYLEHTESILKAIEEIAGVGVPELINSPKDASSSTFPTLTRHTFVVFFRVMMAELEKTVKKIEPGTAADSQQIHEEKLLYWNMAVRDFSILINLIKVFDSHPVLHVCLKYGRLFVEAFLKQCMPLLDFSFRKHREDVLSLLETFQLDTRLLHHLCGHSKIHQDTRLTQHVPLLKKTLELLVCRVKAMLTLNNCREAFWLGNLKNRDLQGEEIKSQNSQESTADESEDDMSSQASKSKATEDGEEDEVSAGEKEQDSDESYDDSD
UniProt O75925: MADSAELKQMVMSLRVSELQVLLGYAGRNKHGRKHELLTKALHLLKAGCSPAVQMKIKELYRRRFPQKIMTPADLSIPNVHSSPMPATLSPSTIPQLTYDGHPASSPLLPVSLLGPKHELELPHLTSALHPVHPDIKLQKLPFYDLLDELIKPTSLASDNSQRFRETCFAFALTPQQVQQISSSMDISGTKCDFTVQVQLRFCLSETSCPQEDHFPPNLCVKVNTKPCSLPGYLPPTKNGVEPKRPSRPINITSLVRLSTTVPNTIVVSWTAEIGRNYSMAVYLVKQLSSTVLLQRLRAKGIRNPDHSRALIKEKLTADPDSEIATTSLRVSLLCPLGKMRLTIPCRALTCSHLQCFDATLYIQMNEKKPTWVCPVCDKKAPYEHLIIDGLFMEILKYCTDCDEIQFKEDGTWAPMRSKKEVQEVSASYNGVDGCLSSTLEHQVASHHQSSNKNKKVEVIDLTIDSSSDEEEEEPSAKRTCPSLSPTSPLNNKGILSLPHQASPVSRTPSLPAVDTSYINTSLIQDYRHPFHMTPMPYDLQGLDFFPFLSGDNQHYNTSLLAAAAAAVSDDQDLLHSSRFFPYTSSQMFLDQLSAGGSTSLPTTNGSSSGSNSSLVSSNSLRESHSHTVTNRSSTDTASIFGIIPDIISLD
UniProt P25490: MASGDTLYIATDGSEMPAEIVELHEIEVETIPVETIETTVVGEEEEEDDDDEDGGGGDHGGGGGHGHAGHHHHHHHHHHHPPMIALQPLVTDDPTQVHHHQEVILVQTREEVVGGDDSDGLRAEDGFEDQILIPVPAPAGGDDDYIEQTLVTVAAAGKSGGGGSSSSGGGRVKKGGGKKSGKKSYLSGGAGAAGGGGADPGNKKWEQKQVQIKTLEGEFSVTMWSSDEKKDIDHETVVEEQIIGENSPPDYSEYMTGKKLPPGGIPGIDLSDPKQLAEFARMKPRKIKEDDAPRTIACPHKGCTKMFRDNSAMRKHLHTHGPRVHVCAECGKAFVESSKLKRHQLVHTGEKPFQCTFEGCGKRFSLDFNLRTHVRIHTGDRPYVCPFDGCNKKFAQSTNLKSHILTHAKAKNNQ

Biological target: T1, Flag-hRFWD3-C315A (RING domain mutated RFWD3) (human) (UniProt Q6PCD5)
T1 sequence: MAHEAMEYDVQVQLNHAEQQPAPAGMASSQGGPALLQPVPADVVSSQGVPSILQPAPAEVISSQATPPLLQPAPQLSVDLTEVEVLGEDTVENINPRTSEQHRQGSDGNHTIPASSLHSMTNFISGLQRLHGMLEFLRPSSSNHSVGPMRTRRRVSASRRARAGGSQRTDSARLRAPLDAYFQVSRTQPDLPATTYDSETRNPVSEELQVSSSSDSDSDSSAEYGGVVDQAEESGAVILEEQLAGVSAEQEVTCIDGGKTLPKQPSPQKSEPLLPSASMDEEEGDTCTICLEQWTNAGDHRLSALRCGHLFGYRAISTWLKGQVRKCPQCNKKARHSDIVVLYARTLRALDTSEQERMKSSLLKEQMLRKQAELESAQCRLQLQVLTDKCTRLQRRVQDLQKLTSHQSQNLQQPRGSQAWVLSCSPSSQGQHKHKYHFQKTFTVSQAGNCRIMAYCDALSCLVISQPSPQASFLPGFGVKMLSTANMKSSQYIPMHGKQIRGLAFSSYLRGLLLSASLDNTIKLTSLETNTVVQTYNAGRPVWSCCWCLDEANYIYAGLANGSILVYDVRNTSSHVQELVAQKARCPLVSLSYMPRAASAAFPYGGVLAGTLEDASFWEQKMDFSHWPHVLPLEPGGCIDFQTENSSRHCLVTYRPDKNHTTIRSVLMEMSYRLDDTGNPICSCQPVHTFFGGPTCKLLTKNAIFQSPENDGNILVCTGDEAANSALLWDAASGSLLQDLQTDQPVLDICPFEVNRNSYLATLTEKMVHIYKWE
Experiment: affinity purification with mass spectrometry; anti-FLAG M2 affinity gel IP of doxycycline-induced Flag-hRFWD3-C315A (bait) from RIPA lysates with benzonase, overnight at 4 °C; HAP1 parental (SLFN11-expressing) and SLFN11 KO cells, with or without 2 mM HU for 4 h; eluted with 3X DYKDDDDK peptide; LC-MS/MS, SAINT scoring

Molecule | binding
DNAJC13 (from UniProt O75165 1-2243) | binds
FANCD2 (from UniProt Q9BXW9 1-1451) | binds
PIAS1 (from UniProt O75925 1-651) | binds
YY1 (from UniProt P25490 1-414) | binds
B1 | binds
B2 | binds

Source: publication PMC12696100
